PubChem BioAssay AID2685 (National Center for Advancing Translational Sciences (NCATS), 2010)
The list shows a part of the results. The main result of the screen is listed elsewhere. These columns were measured beside it and carry no call. Compounds called inactive in the main read-out are mostly missing here. The note in brackets gives the kind of curve behind each potency; many fits are weak.

Assay: qHTS Assay for Lipid Storage Modulators in Drosophila S3 Cells;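 on cell number change: cells counted by Cell Tracker Red CMTPX staining in the red channel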
Conditions: BODIPY lipid droplet fluorescence, 18-24 h; for cell number change: measured here: cell count max response, cells fed with added oleic acid
Summary of the method: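 Drosophila S3 cells got compounds at several concentrations plus oleic acid (400 uM solution). Laser-scanning cytometry with 488 nm excitation read lipid droplets at 500-530 nm and cells at 575-640 nm. Percent activity was relative to 20 uM Triacsin C.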

[1] = measured here: lipid fluorescence (Fed channel) AC50, cells fed with added oleic acid
[2] = measured here: cell number channel AC50, cells fed with added oleic acid

| SMILES | cell number change | AC50 [1] | AC50 [2] |
| --- | --- | --- | --- |
| Cc1cc(C)cc(NC(=O)c2ccc3c(c2)CCN3S(C)(=O)=O)c1 | 25.5% | 18.4 µM [rising, partial curve] | – |
| O=C(COC(=O)/C=C/c1ccc(F)cc1)Nc1nnc(-c2ccccc2)o1 | -5.7% | 29.1 µM [falling, single point] | – |
| COc1ccc(CCNC(=O)CSc2n[nH]c(N)n2)cc1OC | -13.3% | 0.206 µM [falling, single point] | – |
| CCOc1ccc(NC(=O)c2ccc(NC(=O)c3ccccc3Br)cc2)cc1 | 13% | – | – |
| CC(OCC(O)CN1CCCCC1CCO)c1ccc(Cl)cc1 (centres undefined) | 8.4% | – | – |
| CN1CCN(CCC(=O)Nc2cccc(Br)c2)CC1 | -14.6% | – | – |
| Cc1cc(C)c(NC(=O)C(C)OC(=O)c2cc(Br)c(Br)s2)c(C)c1 (centres undefined) | -0.352% | 0.651 µM [falling, full curve, poor fit] | – |
| Cc1nn2c(=O)cc(COC(=O)c3ccc(NC(=O)C(C)(C)C)cc3)nc2s1 | – | 11.6 µM [falling, partial curve] | – |
| CNc1cc(-n2nc(C)cc2-c2ccccc2)ncn1 | 1.44% | 2.59 µM [rising, single point] | – |
| O=C(NCc1ccco1)C(=O)NCC1OCCN1S(=O)(=O)c1ccc(Cl)cc1 (centres undefined) | 0.503% | 0.58 µM [rising, single point] | – |
| Cc1cc(C(=O)CSc2nc(N)cc(=O)[nH]2)c(C)n1-c1cccc(F)c1 | -2.11% | 29.1 µM [falling, single point] | – |
| CCOc1c(Br)cc(CNc2ccc(N3CCN(C(C)=O)CC3)cc2)cc1OC | -0.367% | – | – |
| Cc1ccc(C)c(NC(=O)C(Sc2ncnc3ccccc23)c2ccccc2)c1 (centres undefined) | – | 0.731 µM [falling, full curve] | – |
| COc1ccccc1NC(=O)Cn1cnc2sc(C(=O)Nc3ccc(OC)c(OC)c3)c(C)c2c1=O | -2.85% | 1.46 µM [rising, partial curve] | – |
| O=C(CCC(=O)Nc1ccc(F)cc1)N/N=C/c1cc([N+](=O)[O-])ccc1O | -12% | 1.84 µM [falling, single point] | – |
| Cc1ncc(CO)c2c1Oc1nc(-c3ccccc3)nc(SCC(=O)N3CCCCC3)c1C2 | -23.3% | – | 0.231 µM [falling, full curve, poor fit] |
| C[n+]1cn(Cc2cc(Cl)ccc2OC(F)F)c2ccccc21 | -7.8% | – | 6.51 µM [rising, single point] |
| O=C(COC(=O)C1CCN(c2ccc(C(F)(F)F)cn2)CC1)Nc1ccc(Cl)cn1 | 1.64% | 0.0291 µM [falling, full curve, poor fit] | – |
| Cc1ccn2c(=O)nc(SCC(=O)Nc3cc(C)on3)nc2c1 | – | – | 0.326 µM [rising, full curve] |
| COc1ccc2nc(C)cc(N3CCOCC3)c2c1 | – | 0.291 µM [falling, partial curve, poor fit] | – |
| COc1ccc(Cl)cc1Nc1nc(N)c2ccccc2n1 | -15.8% | 2.31 µM [rising, partial curve] | – |

Quoted from the listing.
cell number change with Cc1ncc(CO)c2c1Oc1nc(-c3ccccc3)nc(SCC(=O)N3CCCCC3)c1C2 is entered as -23.3%
cell number change with CC(OCC(O)CN1CCCCC1CCO)c1ccc(Cl)cc1 (centres undefined) is entered as 8.4%

Next structures:

| SMILES | cell number change | AC50 [1] | AC50 [2] |
| --- | --- | --- | --- |
| COc1ccc(NC(=O)NNC(=O)COc2ccc3ccccc3c2)cc1OC | 32.7% | 29.1 µM [rising, single point] | 32.6 µM [rising, single point] |
| CC1Cc2ccccc2N1C(=O)CN(C)CC(=O)Nc1cccc(F)c1 (centres undefined) | 6.64% | – | 6.51 µM [falling, single point] |
| O=C(CSc1cccc(C(F)(F)F)c1)Nc1ccc(Cl)cc1Cl | -62.6% | – | 13 µM [falling, partial curve, poor fit] |
| Cn1c(=O)c2c(nc(N/N=C/c3cccnc3)n2Cc2ccccc2)n(C)c1=O | 13.8% | 1.16 µM [rising, full curve, poor fit] | – |
| Cn1c2ccccc2c(=O)c2c(=O)n(-c3ccc(F)cc3)c(-c3cccs3)nc21 | -41.9% | 29.1 µM [falling, single point] | 18.4 µM [falling, single point] |
| COc1ccc(CN(CC(=O)NCc2ccccc2)C(=O)CCC(=O)Nc2cc(C)ccn2)cc1 | -32.1% | 6.51 µM [falling, single point] | 0.13 µM [falling, full curve, poor fit] |
| CCn1cc(C=O)c2cc(S(=O)(=O)N3CCOCC3)ccc21 | -13.8% | 13 µM [rising, single point] | – |
| CCSC1=NC(C)(C)C=C(C)N1 | -9.47% | 3.26 µM [falling, single point] | 3.66 µM [falling, single point] |
| CS(=O)(=O)Nc1ccc(C2=NN(S(=O)(=O)c3ccc(F)cc3)C(c3ccco3)C2)cc1 (centres undefined) | 11.6% | – | – |
| COC(=O)Nc1nnc(Cc2ccc(OC)cc2)s1 | 8.23% | 4.61 µM [falling, single point] | – |
| CCn1c2ccccc2c2cc(NC(=O)CSc3nnc(-c4ccccc4OC)n3N)ccc21 | – | 0.58 µM [rising, partial curve] | 0.206 µM [rising, full curve, poor fit] |
| CCOc1ccccc1NC(=O)COC(=O)CN(C)S(=O)(=O)c1ccc(C)cc1 | – | 6.51 µM [rising, single point] | 0.651 µM [rising, single point] |
| Cc1cc(/C([O-])=C(/C(=S)Nc2ccc(F)cc2)[n+]2ccccc2)c(C)n1Cc1ccccc1Cl | 36.9% | – | 4.61 µM [rising, partial curve] |
| Cc1cc(C)n2c(SC/C(O)=C(\C#N)c3nc4ccccc4[nH]3)nnc2n1 | -11.4% | – | – |
| O=C(N/N=C/c1cnc2ccccc2n1)c1cccc(F)c1 | 28.5% | 1.46 µM [rising, full curve] | – |
| CCOc1ccc(S(=O)(=O)N(C)CC(=O)NCCN2CCOCC2)cc1 | -34.2% | – | 29.1 µM [falling, single point] |
| Cc1ccc2oc(C(=O)N(CCO)Cc3ccccc3)c(C)c2c1 | -12.9% | 13 µM [falling, partial curve] | – |
| CCC(=O)Nc1cccc(NC(=O)c2ccc(C)c([N+](=O)[O-])c2)c1 | 12.6% | 0.00461 µM [rising, full curve, poor fit] | – |
| Cc1cccc(S(=O)(=O)NCCNS(=O)(=O)c2cccc(C)c2)c1 | -11.5% | – | – |
| CC1C/C(=N\NC(=O)c2cccnc2)CC(C)(C)C1 (centres undefined) | -20.4% | – | 0.82 µM [falling, full curve, poor fit] |
| N#Cc1ccc(CSC2=NCCN2)cc1 | -57.7% | – | 29.1 µM [falling, single point] |

Compounds above that have an aryl methoxy group:

| SMILES | cell number change | AC50 [1] | AC50 [2] |
| --- | --- | --- | --- |
| COc1ccc(CCNC(=O)CSc2n[nH]c(N)n2)cc1OC | -13.3% | 0.206 µM [falling, single point] | – |
| CCOc1c(Br)cc(CNc2ccc(N3CCN(C(C)=O)CC3)cc2)cc1OC | -0.367% | – | – |
| COc1ccccc1NC(=O)Cn1cnc2sc(C(=O)Nc3ccc(OC)c(OC)c3)c(C)c2c1=O | -2.85% | 1.46 µM [rising, partial curve] | – |
| COc1ccc2nc(C)cc(N3CCOCC3)c2c1 | – | 0.291 µM [falling, partial curve, poor fit] | – |
| COc1ccc(Cl)cc1Nc1nc(N)c2ccccc2n1 | -15.8% | 2.31 µM [rising, partial curve] | – |
| COc1ccc(NC(=O)NNC(=O)COc2ccc3ccccc3c2)cc1OC | 32.7% | 29.1 µM [rising, single point] | 32.6 µM [rising, single point] |
| COc1ccc(CN(CC(=O)NCc2ccccc2)C(=O)CCC(=O)Nc2cc(C)ccn2)cc1 | -32.1% | 6.51 µM [falling, single point] | 0.13 µM [falling, full curve, poor fit] |
| COC(=O)Nc1nnc(Cc2ccc(OC)cc2)s1 | 8.23% | 4.61 µM [falling, single point] | – |
| CCn1c2ccccc2c2cc(NC(=O)CSc3nnc(-c4ccccc4OC)n3N)ccc21 | – | 0.58 µM [rising, partial curve] | 0.206 µM [rising, full curve, poor fit] |

The listing continues:

| SMILES | cell number change | AC50 [1] | AC50 [2] |
| --- | --- | --- | --- |
| CCOc1cc(C(=O)Nc2ccc3c(c2)OCO3)ccc1OC(F)F | 8.55% | 1.3 µM [rising, partial curve] | 0.411 µM [rising, full curve] |
| Cn1nc(-c2ccc(Cl)cc2)c2cc(C(=O)NCCCN3CCCC3)sc21 | 30.2% | 29.1 µM [rising, single point] | 20.6 µM [rising, single point] |
| CC(C(=O)Nc1ccccc1)N1CCN(c2ccccn2)CC1 (centres undefined) | 7.09% | – | – |
| COc1cccc(CNC(=O)CN(C)S(=O)(=O)c2cnc[nH]2)c1 | -1.76% | 0.206 µM [falling, full curve] | – |
| COc1ccc(/C(C)=N/NC(=O)Cc2c(C)nc(C)[nH]c2=O)cc1 | 4.44% | 25.9 µM [rising, partial curve, poor fit] | – |
| Cc1nn(C)cc1CNC(=O)C1C2CCC(C2)C1C(=O)O (centres undefined) | -23.7% | 20.6 µM [falling, single point] | – |
| Fc1cccc(NCc2cn3ccccc3n2)c1 | -33% | – | 29.1 µM [falling, single point] |
| CC1=Nc2cc(C(=O)N3CCCC3)ccc2Sc2c(C)ccc(C)c21 | 4.59% | 29.1 µM [rising, single point] | – |
| COc1cc(CCC(=O)NCc2ccc(S(N)(=O)=O)cc2)cc(OC)c1OC | 2.13% | 13 µM [falling, partial curve] | – |
| O=C(CC1Sc2ccccc2NC1=O)Nc1ccccc1[N+](=O)[O-] (centres undefined) | -0.314% | – | – |
| NC(=O)C1CCN(C(=O)CSCc2ccccc2Cl)CC1 | 8.27% | 0.103 µM [falling, full curve, poor fit] | – |
| O=C(NC(=O)c1ccccc1)NC1(C(F)(F)F)OCCO1 | -3.23% | – | 0.231 µM [falling, full curve] |
| Cc1ccc(S(=O)(=O)N2CC(=NN=C(N)N)C2)cc1 | 10.3% | – | – |
| C=CCOc1ccc2c(c1)c(=O)cc(C(=O)O)n2CC | -0.264% | 6.51 µM [falling, single point] | 6.51 µM [falling, single point] |
| Cc1cc(Cl)c(C)c(S(=O)(=O)Oc2ccccc2NC(=O)CCC(=O)O)c1Cl | -18.1% | 32.6 µM [rising, single point] | – |
| COc1ccc(C(=O)NC2CCCc3ccccc32)c(OC)c1OC (centres undefined) | 2.38% | 29.1 µM [rising, single point] | – |
| CCN(CC)S(=O)(=O)c1ccc(C(=O)NCCOC(=O)c2ccc(F)cc2F)cc1 | – | 5.8 µM [falling, full curve] | – |
| CC1CCCN(C(=S)SCC(=O)O)C1 (centres undefined) | – | – | 0.651 µM [falling, single point] |
| C/C=C(\C)C(=O)NCCN1C2=NC[C@@H](C)N2C[C@H]1Cc1ccc(O)cc1 | 1.23% | 2.59 µM [falling, full curve, poor fit] | – |
| O=C(c1ccc(F)cc1F)N1CCCC(c2nc(-c3ccc(F)cc3)no2)C1 (centres undefined) | – | 0.00461 µM [falling, full curve, poor fit] | – |
